Measured values from patent US8188088B2, “Ethenyl carboxamide derivatives useful as microbiocides” (Syngenta Participations AG, priority 2006, dated 2012).
Some results were stated once for a whole list of compounds, not compound by compound.

Assays:
Assay type in all cases: in vivo
[1] = test system: Venturia inaequalis; experiment: Action against Venturia inaequalis/apple (scab on apple); settings: 0.02% active ingredient, spray; apple seedlings cv. McIntosh; inoculated 1 day after application; assessed after 4+4+4 days incubation
[2] = test system: Botrytis cinerea; experiment: Action against Botrytis cinerea/apple (Botrytis on apple fruits); settings: 0.02% active ingredient, 30 μl droplets in drilled holes; apple fruit cv. Golden Delicious; inoculated 2 hours after application; assessed after 7 days
[3] = test system: Pyrenophora teres; experiment: Action against Pyrenophora teres/barley (net blotch on barley); settings: 0.02% active ingredient, spray; barley plants cv. Express; inoculated 2 days after application; assessed 4 days after inoculation
[4] = test system: Botrytis cinerea; experiment: Action against Botrytis cinerea/tomato (Botrytis on tomatoes); settings: 0.02% active ingredient, spray; tomato plants cv. Roter Gnom; inoculated 2 days after application; assessed after 4 days
[5] = test system: Altemaria solani; experiment: Action against Altemaria solani/tomato (early blight on tomatoes); settings: 0.02% active ingredient, spray; tomato plants cv. Roter Gnom; inoculated 2 days after application; assessed after 3 days
[6] = test system: Septoria tritici; experiment: Action against Septoria tritici/wheat (Septoria leaf spot on wheat); settings: 0.02% active ingredient, spray; wheat plants cv. Riband; inoculated 1 day after application; assessed 18 days after inoculation
[7] = test system: Uncinula necator; experiment: Action against Uncinula necator/grape (powdery mildew on grape); settings: 0.02% active ingredient, spray; grape seedlings cv. Gutedel; inoculated 1 day after application; assessed after 7 days
[8] = test system: Erysiphe graminis; experiment: Action against Erysiphe graminis/barley (powdery mildew on barley); settings: 0.02% active ingredient, spray; barley plants cv. Express; inoculated 1 day after application; assessed after 6 days
[9] = test system: Podosphaera leucotricha; experiment: Action against Podosphaera leucotricha/apple (powdery mildew on apple); settings: 0.02% active ingredient, spray; apple seedlings cv. McIntosh; inoculated 1 day after application; assessed after 12 days
[10] = test system: Botrytis cinerea; experiment: Action against Botrytis cinerea/grape (Botrytis on grapes); settings: 0.02% active ingredient, spray; grape seedlings cv. Gutedel; inoculated 2 days after application; assessed after 4 days

Measured: infestation (disease incidence)

CC(=Cc1ccc(Cl)cc1Cl)NC(=O)c1cn(C)nc1C(F)F [1.149 (E-from)]
< 20%: all assays above

C/C(=C/c1ccc(F)cc1)NC(=O)c1cn(C)nc1C(F)F [1.079 (Z-form)]
< 20%: all assays above

C/C(=C/c1ccc(F)cc1)NC(=O)c1cn(C)nc1C(F)(F)F [2.079 (Z-form)]
< 20%: all assays above

C/C(=C\c1ccc(F)cc1)NC(=O)c1cn(C)nc1C(F)F [1.079 (E-from)]
< 20%: all assays above

C/C(=C/c1ccc(Cl)cc1Cl)NC(=O)c1cn(C)nc1C(F)F [1.149 (Z-form)]
< 20%: all assays above

Cn1cc(C(=O)NC2=C(c3ccc(Cl)cc3)CCCC2)c(C(F)F)n1 [Compound 1.025]
< 20%: all assays above

C/C(=C\c1ccc(F)cc1)NC(=O)c1cn(C)nc1C(F)(F)F [2.079 (E-from)]
< 20%: all assays above
